# Measurements from the supplement of paper PMC12819154, “High-throughput peptide-centric local stability assay extends protein–ligand identification to membrane proteins, tissues and bacteria” (Nature Structural & Molecular Biology, 2025).
# The chains behind the UniProt entries cited, without tags or fusion partners. Where a name states a change or a piece, a line headed by the entry shows the natural chain unless it says otherwise.
# UniProt Q5SPL2: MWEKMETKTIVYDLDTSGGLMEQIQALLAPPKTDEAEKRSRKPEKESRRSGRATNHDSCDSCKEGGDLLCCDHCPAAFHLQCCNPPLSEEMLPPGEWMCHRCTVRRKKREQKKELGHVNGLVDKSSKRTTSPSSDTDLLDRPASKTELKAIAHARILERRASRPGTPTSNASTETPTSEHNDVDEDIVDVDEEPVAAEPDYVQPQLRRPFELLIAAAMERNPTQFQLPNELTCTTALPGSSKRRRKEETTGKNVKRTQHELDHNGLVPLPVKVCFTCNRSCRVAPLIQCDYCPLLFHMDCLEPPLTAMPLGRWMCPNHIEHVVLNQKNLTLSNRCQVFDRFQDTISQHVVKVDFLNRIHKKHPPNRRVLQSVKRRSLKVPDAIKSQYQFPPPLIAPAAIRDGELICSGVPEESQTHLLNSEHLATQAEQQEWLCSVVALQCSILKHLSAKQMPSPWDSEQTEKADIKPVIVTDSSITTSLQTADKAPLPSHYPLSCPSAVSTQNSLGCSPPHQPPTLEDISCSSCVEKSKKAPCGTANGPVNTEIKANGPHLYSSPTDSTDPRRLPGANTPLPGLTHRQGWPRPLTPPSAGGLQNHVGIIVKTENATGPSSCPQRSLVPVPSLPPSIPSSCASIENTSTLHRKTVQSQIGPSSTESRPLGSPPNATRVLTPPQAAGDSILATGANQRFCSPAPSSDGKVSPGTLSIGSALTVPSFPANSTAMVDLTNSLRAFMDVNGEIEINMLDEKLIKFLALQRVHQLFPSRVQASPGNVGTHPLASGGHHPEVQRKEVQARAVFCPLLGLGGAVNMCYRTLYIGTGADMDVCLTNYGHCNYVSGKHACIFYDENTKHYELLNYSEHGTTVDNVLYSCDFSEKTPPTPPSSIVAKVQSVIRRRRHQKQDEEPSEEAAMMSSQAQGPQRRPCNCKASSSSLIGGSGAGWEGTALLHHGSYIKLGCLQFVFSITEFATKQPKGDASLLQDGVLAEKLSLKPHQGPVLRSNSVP
# UniProt Q61171: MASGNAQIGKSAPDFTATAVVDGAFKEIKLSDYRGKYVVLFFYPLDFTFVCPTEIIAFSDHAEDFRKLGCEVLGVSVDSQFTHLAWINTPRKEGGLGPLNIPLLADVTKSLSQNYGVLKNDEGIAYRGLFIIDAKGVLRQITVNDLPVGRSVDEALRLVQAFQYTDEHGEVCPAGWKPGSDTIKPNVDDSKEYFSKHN
# UniProt Q5SV77, whole entry: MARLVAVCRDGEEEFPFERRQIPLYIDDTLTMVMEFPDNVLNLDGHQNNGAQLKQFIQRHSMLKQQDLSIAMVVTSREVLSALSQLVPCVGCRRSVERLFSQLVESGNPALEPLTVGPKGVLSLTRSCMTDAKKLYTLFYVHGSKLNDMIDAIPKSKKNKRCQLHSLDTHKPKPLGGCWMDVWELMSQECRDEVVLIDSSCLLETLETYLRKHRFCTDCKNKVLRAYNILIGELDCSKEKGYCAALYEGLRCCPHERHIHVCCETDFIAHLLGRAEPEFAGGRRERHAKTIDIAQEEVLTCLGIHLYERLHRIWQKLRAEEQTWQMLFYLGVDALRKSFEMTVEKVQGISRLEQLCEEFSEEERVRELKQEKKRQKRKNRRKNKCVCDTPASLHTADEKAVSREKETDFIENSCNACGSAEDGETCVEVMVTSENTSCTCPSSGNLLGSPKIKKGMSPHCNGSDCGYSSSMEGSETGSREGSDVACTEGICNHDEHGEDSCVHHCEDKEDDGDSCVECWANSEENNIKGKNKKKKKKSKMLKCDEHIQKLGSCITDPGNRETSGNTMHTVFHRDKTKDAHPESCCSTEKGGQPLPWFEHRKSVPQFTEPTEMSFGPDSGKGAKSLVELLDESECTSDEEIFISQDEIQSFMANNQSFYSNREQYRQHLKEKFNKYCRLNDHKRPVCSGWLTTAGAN
# UniProt Q5IRJ6: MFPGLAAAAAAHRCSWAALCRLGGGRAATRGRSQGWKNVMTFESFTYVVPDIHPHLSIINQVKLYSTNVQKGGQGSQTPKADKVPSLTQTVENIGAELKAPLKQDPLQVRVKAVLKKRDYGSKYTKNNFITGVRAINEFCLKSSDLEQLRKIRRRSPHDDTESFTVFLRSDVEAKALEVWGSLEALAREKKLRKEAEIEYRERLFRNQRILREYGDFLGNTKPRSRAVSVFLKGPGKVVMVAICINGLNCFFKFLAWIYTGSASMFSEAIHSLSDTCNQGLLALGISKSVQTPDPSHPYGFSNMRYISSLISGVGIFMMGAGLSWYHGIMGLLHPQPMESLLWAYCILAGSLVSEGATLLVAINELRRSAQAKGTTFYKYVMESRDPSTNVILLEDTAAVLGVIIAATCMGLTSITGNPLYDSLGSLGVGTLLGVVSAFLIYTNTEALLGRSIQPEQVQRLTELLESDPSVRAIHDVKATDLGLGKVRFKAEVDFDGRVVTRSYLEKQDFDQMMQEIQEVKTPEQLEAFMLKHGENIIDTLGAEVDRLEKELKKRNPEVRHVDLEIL
# UniProt Q5U430: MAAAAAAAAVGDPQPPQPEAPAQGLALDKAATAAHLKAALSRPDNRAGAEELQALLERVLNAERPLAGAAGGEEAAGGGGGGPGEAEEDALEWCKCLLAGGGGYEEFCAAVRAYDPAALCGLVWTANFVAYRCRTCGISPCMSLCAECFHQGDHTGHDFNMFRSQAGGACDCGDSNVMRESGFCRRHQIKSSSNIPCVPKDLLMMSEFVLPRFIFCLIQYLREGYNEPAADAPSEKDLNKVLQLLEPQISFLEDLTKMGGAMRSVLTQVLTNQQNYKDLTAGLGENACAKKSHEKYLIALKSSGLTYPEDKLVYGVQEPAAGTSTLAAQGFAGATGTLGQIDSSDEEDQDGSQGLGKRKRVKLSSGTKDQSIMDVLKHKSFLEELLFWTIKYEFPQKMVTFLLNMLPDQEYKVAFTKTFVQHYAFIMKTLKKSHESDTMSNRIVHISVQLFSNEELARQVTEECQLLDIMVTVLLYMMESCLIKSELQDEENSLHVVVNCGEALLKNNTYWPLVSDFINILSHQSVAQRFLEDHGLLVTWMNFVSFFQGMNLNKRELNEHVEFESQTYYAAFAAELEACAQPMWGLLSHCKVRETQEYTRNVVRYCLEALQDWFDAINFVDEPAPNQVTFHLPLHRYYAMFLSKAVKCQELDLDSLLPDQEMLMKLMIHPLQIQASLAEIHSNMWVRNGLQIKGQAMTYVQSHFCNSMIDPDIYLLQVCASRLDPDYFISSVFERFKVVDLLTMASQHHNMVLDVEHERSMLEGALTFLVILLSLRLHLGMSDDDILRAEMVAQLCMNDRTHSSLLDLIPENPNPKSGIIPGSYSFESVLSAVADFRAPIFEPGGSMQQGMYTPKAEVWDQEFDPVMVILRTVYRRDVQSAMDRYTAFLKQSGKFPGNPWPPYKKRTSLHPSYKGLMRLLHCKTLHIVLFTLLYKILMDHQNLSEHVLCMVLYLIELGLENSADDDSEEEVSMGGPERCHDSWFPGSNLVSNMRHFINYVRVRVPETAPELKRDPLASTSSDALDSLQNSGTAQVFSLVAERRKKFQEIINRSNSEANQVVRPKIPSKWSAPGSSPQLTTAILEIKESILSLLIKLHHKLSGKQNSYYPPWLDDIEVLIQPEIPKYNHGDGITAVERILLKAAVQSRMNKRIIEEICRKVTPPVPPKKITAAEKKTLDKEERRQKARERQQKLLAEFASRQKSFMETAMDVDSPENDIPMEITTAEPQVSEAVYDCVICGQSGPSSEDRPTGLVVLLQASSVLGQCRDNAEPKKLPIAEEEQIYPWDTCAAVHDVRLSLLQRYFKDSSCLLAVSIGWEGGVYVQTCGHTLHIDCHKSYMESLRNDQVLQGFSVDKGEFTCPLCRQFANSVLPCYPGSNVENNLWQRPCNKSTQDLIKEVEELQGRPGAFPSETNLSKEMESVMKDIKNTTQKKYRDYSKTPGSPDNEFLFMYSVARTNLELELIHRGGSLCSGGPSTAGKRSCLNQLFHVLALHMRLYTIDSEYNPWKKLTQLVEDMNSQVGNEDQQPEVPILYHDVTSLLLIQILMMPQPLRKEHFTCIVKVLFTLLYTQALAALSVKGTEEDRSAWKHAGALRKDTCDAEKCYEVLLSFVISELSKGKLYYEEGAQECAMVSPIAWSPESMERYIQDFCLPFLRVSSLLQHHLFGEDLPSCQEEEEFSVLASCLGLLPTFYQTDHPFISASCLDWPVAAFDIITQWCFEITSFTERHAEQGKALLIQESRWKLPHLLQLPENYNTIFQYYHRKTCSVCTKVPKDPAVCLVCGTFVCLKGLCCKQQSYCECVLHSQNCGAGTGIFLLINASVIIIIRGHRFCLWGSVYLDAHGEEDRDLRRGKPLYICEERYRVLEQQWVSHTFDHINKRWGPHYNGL
# UniProt Q5RKZ7: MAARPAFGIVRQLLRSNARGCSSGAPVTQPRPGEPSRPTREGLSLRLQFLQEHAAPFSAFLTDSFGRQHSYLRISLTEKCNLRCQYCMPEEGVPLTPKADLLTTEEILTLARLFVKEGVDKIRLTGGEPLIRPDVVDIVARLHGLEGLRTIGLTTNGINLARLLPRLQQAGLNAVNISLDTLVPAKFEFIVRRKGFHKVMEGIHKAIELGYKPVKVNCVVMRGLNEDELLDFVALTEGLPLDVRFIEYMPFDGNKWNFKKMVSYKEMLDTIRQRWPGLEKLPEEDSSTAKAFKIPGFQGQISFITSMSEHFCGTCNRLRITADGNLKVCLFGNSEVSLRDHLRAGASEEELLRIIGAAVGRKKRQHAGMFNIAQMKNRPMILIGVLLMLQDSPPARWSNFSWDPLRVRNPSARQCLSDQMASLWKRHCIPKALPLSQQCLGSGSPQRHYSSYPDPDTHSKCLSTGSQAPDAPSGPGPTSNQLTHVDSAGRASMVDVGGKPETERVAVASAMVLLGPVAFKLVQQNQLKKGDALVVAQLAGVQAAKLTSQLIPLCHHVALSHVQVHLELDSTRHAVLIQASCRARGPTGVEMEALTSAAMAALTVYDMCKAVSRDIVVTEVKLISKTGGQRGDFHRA
# UniProt Q5SUE8: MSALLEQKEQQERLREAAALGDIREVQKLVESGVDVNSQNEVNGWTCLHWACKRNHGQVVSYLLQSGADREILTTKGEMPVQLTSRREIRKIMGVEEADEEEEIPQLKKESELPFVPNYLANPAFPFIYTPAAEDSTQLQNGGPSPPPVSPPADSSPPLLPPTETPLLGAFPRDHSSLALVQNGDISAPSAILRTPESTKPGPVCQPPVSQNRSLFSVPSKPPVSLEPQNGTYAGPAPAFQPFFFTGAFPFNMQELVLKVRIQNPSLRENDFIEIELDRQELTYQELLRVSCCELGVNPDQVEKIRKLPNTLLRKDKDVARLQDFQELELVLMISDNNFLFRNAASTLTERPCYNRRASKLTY
# UniProt Q61122: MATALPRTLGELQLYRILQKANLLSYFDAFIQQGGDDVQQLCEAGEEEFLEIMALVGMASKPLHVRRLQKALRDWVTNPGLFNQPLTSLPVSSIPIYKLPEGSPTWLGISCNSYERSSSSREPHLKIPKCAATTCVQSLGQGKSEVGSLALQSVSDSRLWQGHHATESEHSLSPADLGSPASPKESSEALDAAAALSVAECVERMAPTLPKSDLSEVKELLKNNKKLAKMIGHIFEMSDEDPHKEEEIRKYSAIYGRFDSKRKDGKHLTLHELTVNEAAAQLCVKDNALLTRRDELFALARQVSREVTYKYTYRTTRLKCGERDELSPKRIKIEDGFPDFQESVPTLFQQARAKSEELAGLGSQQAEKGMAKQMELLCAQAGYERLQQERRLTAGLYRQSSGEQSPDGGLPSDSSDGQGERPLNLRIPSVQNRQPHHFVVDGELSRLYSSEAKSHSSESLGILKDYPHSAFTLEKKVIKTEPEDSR
# UniProt Q5U4D8: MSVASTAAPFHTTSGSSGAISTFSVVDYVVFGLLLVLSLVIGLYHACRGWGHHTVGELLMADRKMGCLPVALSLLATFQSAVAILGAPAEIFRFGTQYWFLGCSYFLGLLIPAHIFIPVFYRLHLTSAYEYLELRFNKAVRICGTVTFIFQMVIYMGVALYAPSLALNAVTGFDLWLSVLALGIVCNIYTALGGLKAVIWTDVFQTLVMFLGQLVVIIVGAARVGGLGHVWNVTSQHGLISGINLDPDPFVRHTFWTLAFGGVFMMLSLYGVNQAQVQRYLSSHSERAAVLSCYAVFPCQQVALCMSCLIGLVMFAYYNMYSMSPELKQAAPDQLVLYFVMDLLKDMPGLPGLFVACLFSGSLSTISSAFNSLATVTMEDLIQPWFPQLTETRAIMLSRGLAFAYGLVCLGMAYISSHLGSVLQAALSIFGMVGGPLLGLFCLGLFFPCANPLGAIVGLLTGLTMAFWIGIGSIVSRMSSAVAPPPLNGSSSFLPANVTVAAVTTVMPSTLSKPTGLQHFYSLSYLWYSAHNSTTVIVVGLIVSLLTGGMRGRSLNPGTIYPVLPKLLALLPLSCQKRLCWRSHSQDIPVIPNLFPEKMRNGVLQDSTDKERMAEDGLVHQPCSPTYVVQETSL
# This is one part of the list. Most entries show no effect beyond the scatter of the controls.
# Compound: CN[C@@H]1C[C@H]2O[C@@](C)([C@@H]1OC)n1c3ccccc3c3c4c(c5c6ccccc6n2c5c31)C(=O)NC4 [staurosporine]
# Assay: log2 fold change of tryptic peptide abundance, ligand vs vehicle (limited proteolysis) (log2 ratio); higher = more trypsin-susceptible (destabilized)
# Settings: ligand concentration: 20 uM; sample: mouse liver crude lysate; replicate design: treated separately
row,Target,log2 fold change
1,"UniProt Q5SPL2 (peptide sequence: VHQLFPSR, peptide start residue: 757)",0.476
2,"UniProt Q61194 (peptide sequence: TRNPTFNEMLVYSGYSK, peptide start residue: 1618)",-0.397
3,"UniProt Q61171 (peptide sequence: SLSQNYGVLK, peptide start residue: 110)",-0.465
4,"UniProt Q60862 (peptide sequence: TLHNLLR, peptide start residue: 270)",-0.044
5,"UniProt Q5ND34 (peptide sequence: DREEEEEPLTEQTEGK, peptide start residue: 1194)",-0.861
6,"UniProt Q5SV77 (peptide sequence: MLKCDEHIQK, peptide start residue: 540)",0.304
7,"UniProt Q5IRJ6 (peptide sequence: KEAEIEYR, peptide start residue: 194)",-0.138
8,"UniProt Q5U430 (peptide sequence: VRVPETAPELKR, peptide start residue: 1002)",0.525
9,"UniProt Q5RKZ7 (peptide sequence: QHAGMFNIAQMK, peptide start residue: 365)",-0.115
10,"UniProt Q60766 (peptide sequence: FYIVWTK, peptide start residue: 185)",0.125
11,"UniProt Q5SUE8 (peptide sequence: EAAALGDIR, peptide start residue: 16)",0.141
12,"UniProt Q61122 (peptide sequence: DYPHSAFTLEK, peptide start residue: 465)",0.233
13,"UniProt Q5U4D8 (peptide sequence: NGVLQDSTDKER, peptide start residue: 601)",0.297

# Already shown: an excerpt of the list.
row,Target,log2 fold change
5,"UniProt Q5ND34 (peptide sequence: DREEEEEPLTEQTEGK, peptide start residue: 1194)",-0.861
6,"UniProt Q5SV77 (peptide sequence: MLKCDEHIQK, peptide start residue: 540)",0.304
7,"UniProt Q5IRJ6 (peptide sequence: KEAEIEYR, peptide start residue: 194)",-0.138
